This passage reports signal change (36 h minus 0 h) results from PubChem BioAssay.

Several values for one entry are separate records, joined by “and”; a condition that tells them apart may be missing. Equal values may be shown once. The list shows a part of the results. Further columns of the screen follow, without active or inactive calls. Square brackets hold non-standard residues; d marks the D form. Side chains are listed from the residue outwards. Peptide text beside a SMILES is read from it. * marks the point of attachment. X1 = CCC(C)C(N)C1=NC(C(=O)*)CS1; Orn = NCCC[CH](N)C(=O)O

The assay in a line: PubChem AID 1586. The settings on record: yeast two-hybrid polyglutamine protein interaction, reporter readout; measured here: averaged growth delta OD.
The compound `CC(=O)NCCc1c[nH]c2ccc(O)cc12` showed a signal change (36 h minus 0 h) of 0.0699. Consider `N[C@@H]1CONC1=O`, for which the signal change (36 h minus 0 h) was found to be 0.163. The same measure for `CN=C(N)NCCCC(N)C(=O)O` (centres undefined): 0.594; for `C[C@@H]1O[C@@H](O[C@H]2[C@H](Oc3cc(O)c4c(c3)O[C@H](c3ccc(O)cc3)CC4=O)O[C@H](CO)[C@@H](O)[C@@H]2O)[C@H](O)[C@H](O)[C@H]1O`: 0.175. On to `O=C1NCC2(CCN(CCc3ccccc3)CC2)O1`, for which the signal change (36 h minus 0 h) was determined as 0.152. Regarding `CCn1cc(C(=O)O)c(=O)c2cnc(N3CCNCC3)nc21`, the signal change (36 h minus 0 h) came to 0.0293. With `C#C[C@]1(O)CCC2C3CCC4=CC(=O)CC[C@@H]4C3CC[C@@]21CC` (some centres undefined), the signal change (36 h minus 0 h) came to 0.187.

Regarding `Cc1cc(=O)n(-c2ccccc2)n1C`, the signal change (36 h minus 0 h) was found to be 0.227. In the case of `Nc1ccc(S(=O)(=O)Nc2ccnn2-c2ccccc2)cc1` it was 0.0911; in that of `CN(C)CCOC(C)(c1ccccc1)c1ccccn1` (centres undefined), 0.064. `C1CCN2C[C@@H]3CC(CN4CCCC[C@@H]34)[C@H]2C1` displayed a signal change (36 h minus 0 h) of 0.144. As for `CCCNC(C)C(=O)Nc1ccccc1C` (centres undefined), the signal change (36 h minus 0 h) stood at 0.286. For `CCC(C)C(N)C1=NC(C(=O)NC(CC(C)C)C(=O)NC(CCC(=O)O)C(=O)NC(C(=O)NCCCCC2NC(=O)C(CC(N)=O)NC(=O)C(CC(=O)O)NC(=O)C(Cc3cnc[nH]3)NC(=O)C(Cc3ccccc3)NC(=O)C(C(C)CC)NC(=O)C(CCCN)NC2=O)C(C)CC)CS1` (stereo not drawn) (cyclo(DNK([Ile-Glu-Leu-X1])[Orn]IFH); configuration not given here), the signal change (36 h minus 0 h) stood at 0.12. Regarding `CC(=O)Oc1ccc2c(c1)CCC1C2CC[C@@]2(C)C1CC[C@@H]2OC(C)=O` (some centres undefined), the signal change (36 h minus 0 h) was found to be 0.0613.

Consider `O=C(O)c1cc(O)ccc1O`, for which the signal change (36 h minus 0 h) was 0.182.

The compound `CC(=O)OCC(=O)[C@@]12OC3(CCCC3)O[C@@H]1CC1C3CCC4=CC(=O)C=C[C@]4(C)[C@@]3(F)[C@@H](O)C[C@@]12C` (some centres undefined) returned a signal change (36 h minus 0 h) of 0.0401. In turn, `CC1(C)C2CC[C@]3(C)C(C(=O)C=C4[C@@H]5C[C@@](C)(C(=O)O)CC[C@]5(C)CC[C@]43C)[C@@]2(C)CC[C@@H]1O` (some centres undefined) registered a signal change (36 h minus 0 h) of 0.183. Take `O=C(O)c1cc(=O)c2cccc(O)c2[nH]1`: the signal change (36 h minus 0 h) worked out at 0.051. `Cc1cccc(N(C)C(=S)Oc2ccc3ccccc3c2)c1` registered a signal change (36 h minus 0 h) of 0.191. The compound `O=C(O)CN(CCN(CC(=O)O)CC(=O)O)CC(=O)O` returned a signal change (36 h minus 0 h) of 0.0911. In the case of `CN(C)CCC(c1ccccc1)c1ccccn1` (centres undefined) it was 0.0722; in that of `Cc1nnc(NS(=O)(=O)c2ccc(N)cc2)s1`, 0.147; in that of `CCC(=O)c1ccc2c(c1)N(CC(C)N(C)C)c1ccccc1S2` (centres undefined), 0.177. The compound `CCN(CC)C(=O)c1cccc(C)c1` gave a signal change (36 h minus 0 h) of 0.0833. In turn, `Cc1cc(C)nc(NS(=O)(=O)c2ccc(N)cc2)n1` had a signal change (36 h minus 0 h) of 0.149. In turn, `NCCCC(=O)O` registered a signal change (36 h minus 0 h) of 0.221.

For `NC(N)=NC(N)=Nc1ccccc1`, the signal change (36 h minus 0 h) is 0.203 and 0.0964. Compound `CN1C(=O)CC[C@H]1c1cccnc1` came in with a signal change (36 h minus 0 h) of 0.626. The compound `Nc1ncnc2c1ncn2C1O[C@H](COP(=O)(O)O)[C@@H](O)[C@H]1O` (some centres undefined) gave a signal change (36 h minus 0 h) of 0.205. The same measure for `c1ccc([C@H]2CN3CCSC3=N2)cc1`: 0.288; for `CS(=O)(=O)OCCCCOS(C)(=O)=O`: 0.11.

`CCN(CC)C(C)CN1c2ccccc2Sc2ccccc21` (centres undefined) showed a signal change (36 h minus 0 h) of 0.355. On to `CN(C)CC/C=C1/c2ccccc2COc2ccccc21`, for which the signal change (36 h minus 0 h) amounted to 0.141.

The compound `CC1CCC(NC(=O)N(CCCl)N=O)CC1` (centres undefined) displayed a signal change (36 h minus 0 h) of 0.246.

For the compound `CN1C[C@H](C(=O)N[C@]2(C)O[C@@]3(O)[C@@H]4CCCN4C(=O)[C@H](Cc4ccccc4)N3C2=O)C[C@@H]2c3cccc4[nH]cc(c34)C[C@H]21`, the signal change (36 h minus 0 h) was determined as 0.114. In the case of `CC(=O)[C@H]1CCC2C3CC=C4C[C@@H](O)CC[C@]4(C)C3CC[C@@]21C` (some centres undefined) it was 0.0316; in that of `O=C(O)P(=O)(O)O`, 0.178. `C[C@@H]1CC2C3C[C@H](F)C4=CC(=O)C=C[C@]4(C)[C@@]3(F)[C@@H](O)C[C@]2(C)[C@@]1(O)C(=O)CO` (some centres undefined): the signal change (36 h minus 0 h) was found to be 0.0908. `CCCCNC(=O)NS(=O)(=O)c1ccc(C)cc1`: the signal change (36 h minus 0 h) was found to be 0.16.
